Measured values: patent US5756462A, “Pore forming peptides from Geolycosa riogrande” (priority 1996, dated 1998)
Entries after “also recorded” stand apart in the source; their conditions may differ. At least one peptide structure holds a part that was inferred or is arguable (an end, a ring closure or a residue). Peptide text beside a SMILES is read from it.

How the values were obtained:
Format in all cases: cell-based
[1] = system: HL-60 cells; assay: Mobilization of intracellular Ca2+ after pertussis toxin pretreatment; conditions: pretreatment 20 hrs with 100 ng/ml pertussis toxin
Method: Increases in [Ca^2+ ]i arising from the mobilization of intracellular Ca^2+ were inhibited by pretreatment for 20 hrs with 100 ng/ml pertussis toxin (PTx).

[2] = system: HL-60 cells differentiated with dibutryl cAMP; assay: Mobilization of intracellular Ca2+ in fura-2 loaded differentiated HL-60 cells; conditions: for mobilization of intracellular Ca2+: differentiated HL-60 cells loaded with fura-2
Method: The three peptides of the present invention isolated from the venom of the spider Geolycosa riogrande, designated Geolycosa 17, 15a and 15b, contain linear sequences of 25 (Geolycosa 17) or 27 (Geolycosa 15a and 15b) amino acids, lack cysteine, and are enriched in lysine. […] When tested at concentrations of 0.5 to 2 μM, all three peptides caused rapid and transient increases in [Ca^2+ ]i that persisted in the absence of extracellular Ca^2+ but were blocked when cellular stores of Ca^2+ were depleted by pretreatment with ionomycin.

[3] = system: HL-60 cells; conditions: for effect of PTx on pore formation: pertussis toxin pretreatment
Method: Uke the effect of many other pore formers, the effects of these peptides on EB uptake were augmented when the total extracellular divalent cation concentration was reduced to 0.1 mM and inhibited when extracellular Mg^2+ was increased from 1 to 5 mM.
The ability of Geolycosa 17 to form pores in membranes was tested in T3 fibroblasts, parathyroid cells, and differentiated and undifferentiated HL60 cells. Pore formation was assessed by measuring the permeability of the cells to ethidium bromide (EB, MW 394). Concentrations of Geolycosa 17 greater than 7.5 μM increased EB uptake in all cells tested.

[4] = system: T3 fibroblasts, parathyroid cells, and differentiated and undifferentiated HL60 cells; assay: Pore formation by ethidium bromide permeability in several cell types; conditions: all cells tested

Compound: CC[C@H](C)[C@H](N)C(=O)N[C@@H](Cc1c[nH]c2ccccc12)C(=O)N[C@@H](CC(C)C)C(=O)N[C@H](C(=O)N[C@@H](C)C(=O)N[C@@H](CC(C)C)C(=O)N[C@@H](CCCCN)C(=O)N[C@@H](Cc1ccccc1)C(=O)N[C@@H](CC(C)C)C(=O)NCC(=O)N[C@@H](CCCCN)C(=O)N[C@@H](CC(N)=O)C(=O)N[C@@H](C)C(=O)N[C@@H](C)C(=O)N[C@@H](CCCCN)C(=O)N[C@@H](Cc1c[nH]cn1)C(=O)N[C@@H](Cc1ccccc1)C(=O)N[C@@H](C)C(=O)N[C@@H](CCCCN)C(=O)N[C@@H](CCCNC(=N)N)C(=O)N[C@@H](CCC(N)=O)C(=O)N[C@@H](CC(C)C)C(=O)N[C@@H](CO)C(=O)N[C@@H](CCCCN)C(=O)N[C@@H](CC(C)C)C(N)=O)[C@@H](C)O [Geolycosa 17] (H-IWLTALKFLGKNAAKHFAKRQLSKL-NH2)
- effect of PTx pretreatment on mobilization of intracellular Ca2+ [1]: blocks
- concentrations effective in mobilizing intracellular Ca2+ [2]: 1 to 3 µM
- mobilization of intracellular Ca2+ [2]: mobilize intracellular Ca^2+
- permeabilization of cells indexed by uptake of ethidium bromide (EB) [3]: permeabilized cells
- potency relative to mastoparan [3]: about twice as potent
- rank order of potency for causing permeabilization of HL-60 cells [3]: melittin>Geolycosa 15b>Geolycosa 17=Geolycosa 15a>mastoparan
- EB uptake at low concentrations ([3]; 1-3 μM, even after 10 minutes): did not cause large increases in EB uptake
- time to complete permeabilization ([3]; >10 μM): ≤ 5 min
- effect of PTx on pore formation [3]: without effect
- concentration causing complete permeabilization ([3]; within 5 minutes): > 10 µM
- concentrations that increased EB uptake [4]: greater than 7.5 μM

Compound: CC[C@H](C)[C@H](N)C(=O)N[C@@H](CC(N)=O)C(=O)N[C@@H](CC(C)C)C(=O)N[C@@H](CCCCN)C(=O)N[C@@H](C)C(=O)N[C@@H](CC(C)C)C(=O)N[C@@H](C)C(=O)N[C@@H](C)C(=O)N[C@@H](CC(C)C)C(=O)N[C@@H](C)C(=O)N[C@@H](CCCCN)C(=O)N[C@@H](CCCCN)C(=O)N[C@H](C(=O)N[C@@H](CC(C)C)C(N)=O)[C@@H](C)CC [mastoparan, reference compound]
- effect of PTx pretreatment on mobilization of intracellular Ca2+ [1]: inhibited; also recorded: blocks
- mobilization of intracellular Ca2+ [2]: caused the mobilization of intracellular Ca^2+
- EB uptake / pore formation at concentrations effective in mobilizing intracellular Ca2+ [3]: caused significant pore formation
- permeabilization of cells indexed by uptake of ethidium bromide (EB) [3]: permeabilized HL-60 cells
- rank order of potency for causing permeabilization of HL-60 cells [3]: melittin>Geolycosa 15b>Geolycosa 17=Geolycosa 15a>mastoparan
- effect of PTx on pore formation [3]: without effect
